From patent US20140235701

Sequences of proteins named here, by UniProt entry; tags and fusion partners are left off. Residues count along the entry.
UniProt P01138, 122-241: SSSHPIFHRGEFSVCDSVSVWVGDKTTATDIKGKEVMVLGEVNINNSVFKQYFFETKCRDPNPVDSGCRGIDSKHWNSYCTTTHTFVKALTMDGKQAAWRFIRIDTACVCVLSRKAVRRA
UniProt P34130, 81-210: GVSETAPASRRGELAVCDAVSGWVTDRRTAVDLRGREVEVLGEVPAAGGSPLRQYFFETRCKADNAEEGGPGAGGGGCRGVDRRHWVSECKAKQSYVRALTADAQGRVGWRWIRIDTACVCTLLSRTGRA
UniProt P23560, 129-247: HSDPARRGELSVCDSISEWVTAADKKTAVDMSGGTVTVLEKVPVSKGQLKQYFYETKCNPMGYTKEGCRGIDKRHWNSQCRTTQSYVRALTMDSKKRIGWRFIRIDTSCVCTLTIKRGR

How the values were obtained:
[1] = target: NGF (nerve growth factor) (Homo sapiens) (UniProt P01138); experiment: SPR; settings: 2'-F C and U, 2'-OH G, 2'-H (deoxy) A, purified recombinant protein, protein details: R&D Systems
NT-3 (neurotrophin-3) [2] = target: T1, NT-3 (neurotrophin-3) (UniProt P20783); experiment: SPR; settings: 2'-OH G, purified recombinant protein, protein details: R&D Systems
T1 sequence (looked up, limits assumed): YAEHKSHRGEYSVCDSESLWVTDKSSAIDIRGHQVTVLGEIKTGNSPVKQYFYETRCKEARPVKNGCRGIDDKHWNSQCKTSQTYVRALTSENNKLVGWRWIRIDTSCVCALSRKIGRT

NT-4 (neurotrophin-4) [3] = target: NT-4 (neurotrophin-4) (UniProt P34130); experiment: SPR; settings: 2'-OH G, purified recombinant protein, protein details: R&D Systems
NT-3 (neurotrophin-3) [4] = target: T1, NT-3 (neurotrophin-3); experiment: activity in cells; settings: TF-1, purified recombinant protein, protein details: R&D Systems
NT-4 (neurotrophin-4) [5] = target: NT-4 (neurotrophin-4) (UniProt P34130); experiment: activity in cells; settings: TF-1, purified recombinant protein, protein details: R&D Systems
BDNF (Homo sapiens) = BDNF (Homo sapiens) (UniProt P23560); experiment: activity in cells; settings: purified recombinant protein, protein details: R&D Systems
[6] = markedly decreased vs SEQ 11, variant of SEQ ID NO: 11
[7] = markedly decreased vs SEQ 13, variant of SEQ ID NO: 13
[8] = markedly decreased vs SEQ 13, no remarkable neurite inhibition at 10 nM, variant of SEQ ID NO: 13
[9] = as 87(2) plus 2'-OMe C9,U10,C11,G29-31, variant of SEQ ID NO: 87(2)

## GGGCACAUCCUGCGCGUAGUUUCCGUCUCCGUGCUGUUAUGUGC [SEQ ID NO: 121]
[1]; [6]
  binding result: binds more weakly

## GGGCACAUCCUGCUGCGAGUUUCCGUCUCGUGGCUGUUAUGUGC [SEQ ID NO: 122]
[1]; [6]
  binding result: binds more weakly

## GGGCACAUCCUGCUGCGUAGUUCCGUCUCCGUGGCUGUUAUGUGC [SEQ ID NO: 130]
[1]; [6]
  binding result: binds more weakly

## GGGCACAUCCUGCUGCGUAGUUUCCGUCUCCGUGGCUGUAUGUGC [SEQ ID NO: 134]
[1]; [6]
  binding result: binds more weakly

## GGGCACAUCCUGCUGCGUAGUUUCCUCUCCGUGGCUGUUAUGUGC [SEQ ID NO: 132]
[1]; [6]
  binding result: binds more weakly

## GGGCACAUCCUGCUGCGUAGUUUGUCUCCGUGGCUGUUAUGUGC [SEQ ID NO: 131]
[1]; markedly decreased vs SEQ 11, no remarkable neurite inhibition at 10 nM, variant of SEQ ID NO: 11
  binding result: binds more weakly

## GGGCACAUCCUGCUGCGUGUUUCCGUCCCGUGGCUGUUAUGUGC [SEQ ID NO: 126]
[1]; [6]
  binding result: binds more weakly

## GGGCACAUCCUGCUGCUAGUUUCCGUCUCGUGGCUGUUAUGUGC [SEQ ID NO: 125]
[1]; [6]
  binding result: binds more weakly

## GGGCACAUCCUGCUGGUAGUUUCCGUCUCCUGGCUGUUAUGUGC [SEQ ID NO: 124]
[1]; [6]
  binding result: binds more weakly

## GGGCACAUCCUGUGCGUAGUUUCCGUCUCCGUGCUGUUAUGUGC [SEQ ID NO: 123]
[1]; [6]
  binding result: binds more weakly

## GGGGCCUGCUGCGUAGUUUCCGUCUCCGUGGCUGUUCCCC [SEQ ID NO: 129]
[1]; [7]
  binding result: binds more weakly

## GGGGUCCGCUGCGUAGUUUCCGUCUCCGUGGCGUUACCCC [SEQ ID NO: 139]
[1]; [7]
  binding result: binds more weakly

## GGGGUCCGCUGCGUAGUUUCCGUCUCCGUGGCUGUACCCC [SEQ ID NO: 141]
[1]; [8]
  binding result: binds more weakly

## GGGGUCCGCUGCGUAGUUUCCGUCUCCGUGGCUGUUACCCC [SEQ ID NO: 136]
[1]; [7]
  binding result: binds more weakly

## GGGGUCCGCUGCGUAGUUUCCGUCUCCGUGGCUUUACCCC [SEQ ID NO: 140]
[1]; [7]
  binding result: binds more weakly

## GGGGUCCUCUGCGUAGUUUCCGUCUCCGUGGUGUUACCCC [SEQ ID NO: 127]
[1]; [8]
  binding result: binds more weakly

## GGGGUCCUGCUGCGUAGUUUCCGCUCCGUGGCUGUUACCCC [SEQ ID NO: 133]
[1]; [8]
  binding result: binds more weakly

## GGGGUCCUGCUGCGUAUUUCCGUUCCGUGGCUGUUACCCC [SEQ ID NO: 128]
[1]; [8]
  binding result: binds more weakly

## GGGGUCUGCUGCGUAGUUUCCGUCUCCGUGGCUGUACCCC [SEQ ID NO: 137]
[1]; [7]
  binding result: binds more weakly

## GGGGUCUGCUGCGUAGUUUCCGUCUCCGUGGCUGUUACCCC [SEQ ID NO: 135]
[1]; [8]
  binding result: binds more weakly

## GGGGUCUGCUGCGUAGUUUCCGUCUCCGUGGCUUUACCCC [SEQ ID NO: 138]
[1]; [7]
  binding result: binds more weakly

## GGGUCCUGACGUAUAGUUUCCGUCUGUAUGUCUGUUACCC [SEQ ID NO: 101]
NT-3 (neurotrophin-3) [2]; 2'-F C and U, 2'-H (deoxy) A, weak binding to NT-3
  binding result: binds more weakly
NT-4 (neurotrophin-4) [3]; 2'-F C and U, 2'-H (deoxy) A, weak binding to NT-4
  binding result: binds more weakly

## GGGUCCUGAGCAAGAGUUUCCGUCUCAUGCUCUGUUACCC [SEQ ID NO: 102]
NT-3 (neurotrophin-3) [2]; 2'-F C/U, dA, weak
  binding result: binds more weakly
NT-4 (neurotrophin-4) [3]; 2'-F C/U, dA, weak
  binding result: binds more weakly

## GGGUCCUGCUCAAGAGUUUCCGUCUCGUGGGCUGUUACCC [SEQ ID NO: 87(1)]
NT-3 (neurotrophin-3) [4]; 2'-OMe G1-3,C38-40, other C/U 2'-F, G 2'-OH, dA, 5',3' idT, variant of SEQ ID NO: 87
  IC50: > 10 nM

## GGGUCCUGCUCAAGAGUUUCCGUCUCGUGGGCUGUUACCC [SEQ ID NO: 87(4)]
NT-3 (neurotrophin-3) [4]; [9]
  IC50: > 10 nM
NT-4 (neurotrophin-4) [5]; [9]
  IC50: > 300 nM

## GGGUCCUGGAUAAGAGTUUCCGUCUCGUAUCCUGUUACCC [SEQ ID NO: 156]
BDNF (Homo sapiens); as 82(1) except dT17, TF-1, variant of SEQ ID NO: 82(1)
  IC50: > 1000 nM

## GGGUCCUGGAUAAGAGUUUCCGUCUCGUAUCCTGUUACCC [SEQ ID NO: 158]
BDNF (Homo sapiens); as 82(1) except dT33, TF-1, variant of SEQ ID NO: 82(1)
  IC50: > 1000 nM

## GGGUCCUGGAUAAGAGUUUCCGUCUCGUAUCCUGUUACCC [SEQ ID NO: 82(1)]
NT-3 (neurotrophin-3) [4]; 2'-OMe G (G8,G34 2'-OH), dA, 2'-F C/U, 5',3' idT, variant of SEQ ID NO: 82
  IC50: > 10 nM

## GGGUCCUGGAUAAGAGUUUCCGUCUCGUAUCCUGUUACCC [SEQ ID NO: 82(15)]
BDNF (Homo sapiens); as 82(1) except 2'-OMe U35, TF-1, variant of SEQ ID NO: 82(1)
  IC50: > 1000 nM

## GGGUCCUGGAUAAGAGUUUCCGUCUCGUAUCCUGUUACCC [SEQ ID NO: 82(16)]
BDNF (Homo sapiens); 2'-F C and U except C38, 2'-OMe G1-3,G9,G14,G16,G22,G27,C38, 2'-OH G8,G34, 2'-H A, idT 5' and 3', TF-1 TrkB/p75 cells, variant of SEQ ID NO: 82
  IC50: > 1000 nM

## GGGUCCUGGAUAAGAGUUUCCGUCUCGUAUCCUGUUACCC [SEQ ID NO: 82(17)]
BDNF (Homo sapiens); as 82(1) except 2'-OMe C39, TF-1, variant of SEQ ID NO: 82(1)
  IC50: > 1000 nM

## GGGUCCUGGAUAAGAGUUUCCGUCUCGUAUCCUGUUACCC [SEQ ID NO: 82(18)]
BDNF (Homo sapiens); as 82(1) except 2'-OMe C40, TF-1, variant of SEQ ID NO: 82(1)
  IC50: > 1000 nM

## GGGUCCUGGAUAAGAGUUUCCGUCUCGUAUCCUGUUACCC [SEQ ID NO: 82(20)]
BDNF (Homo sapiens); as 82(1) except 2'-OMe U4,C6,U11,C21,U23,C26,U30,C32,U35,C38-40, TF-1, variant of SEQ ID NO: 82(1)
  IC50: > 1000 nM
NT-4 (neurotrophin-4) [5]; as 82(1) except 2'-OMe U4,C6,U11,C21,U23,C26,U30,C32,U35,C38-40, variant of SEQ ID NO: 82(1)
  IC50: > 30 nM

## GGGUCCUGGAUAAGAGUUUCCGUCUCGUAUCCUGUUACCC [SEQ ID NO: 82(21)]
BDNF (Homo sapiens); as 82(1) except 2'-OMe U4,C6,U11,C21,U23,U28,U30,C32,U35,C38-40, TF-1, variant of SEQ ID NO: 82(1)
  IC50: > 1000 nM
NT-4 (neurotrophin-4) [5]; as 82(1) except 2'-OMe U4,C6,U11,C21,U23,U28,U30,C32,U35,C38-40, variant of SEQ ID NO: 82(1)
  IC50: > 30 nM

## GGGUCCUGGAUAAGAGUUUCCGUCUCGUAUCCUGUUACCC [SEQ ID NO: 82(22)]
BDNF (Homo sapiens); as 82(1) except 2'-OMe U4,C6,U11,C21,U23,C26,U28,U30,C32,U35,C38-40, TF-1, variant of SEQ ID NO: 82(1)
  IC50: > 1000 nM
NT-4 (neurotrophin-4) [5]; as 82(1) except 2'-OMe U4,C6,U11,C21,U23,C26,U28,U30,C32,U35,C38-40, variant of SEQ ID NO: 82(1)
  IC50: > 30 nM

## GGGUCCUGGAUAAGAGUUUCCGUCUCGUAUCCUGUUACCC [SEQ ID NO: 82(23)]
BDNF (Homo sapiens); as 82(1) except 2'-OMe U4,C6,U11,C21,U23,C26,U30,C31,C32,U35,C38-40, TF-1, variant of SEQ ID NO: 82(1)
  IC50: > 1000 nM
NT-4 (neurotrophin-4) [5]; as 82(1) except 2'-OMe U4,C6,U11,C21,U23,C26,U30,C31,C32,U35,C38-40, variant of SEQ ID NO: 82(1)
  IC50: > 30 nM

## GGGUCCUGGAUAAGAGUUUCCGUCUCGUAUCCUGUUACCC [SEQ ID NO: 82(24)]
BDNF (Homo sapiens); as 82(1) except 2'-OMe U4,C6,U11,C21,U23,U28,U30,C31,C32,U35,C38-40, TF-1, variant of SEQ ID NO: 82(1)
  IC50: > 1000 nM
NT-4 (neurotrophin-4) [5]; as 82(1) except 2'-OMe U4,C6,U11,C21,U23,U28,U30,C31,C32,U35,C38-40, variant of SEQ ID NO: 82(1)
  IC50: > 30 nM

## GGGUCCUGGAUAAGAGUUUCCGUCUCGUAUCCUGUUACCC [SEQ ID NO: 82(25)]
BDNF (Homo sapiens); 2'-F C5,U7,U17,U18,U19,C20,C24,U25,U33,U36, 2'-OH G8,G34, 2'-H A, 2'-OMe all other, idT 5' and 3', TF-1 TrkB/p75 cells, variant of SEQ ID NO: …
  IC50: > 1000 nM

## GGGUCCUGGAUAAGAGUUUCCGUCUCGUAUCCUGUUACCC [SEQ ID NO: 82(26)]
BDNF (Homo sapiens); as 82(25) except 2'-OMe C20, TF-1, variant of SEQ ID NO: 82(25)
  IC50: > 1000 nM
NT-4 (neurotrophin-4) [5]; as 82(25) except 2'-OMe C20, variant of SEQ ID NO: 82(25)
  IC50: > 30 nM

## GGGUCCUGGAUAAGAGUUUCCGUCUCGUAUCCUGUUACCC [SEQ ID NO: 82(55)]
BDNF (Homo sapiens); as 82(25) except 5' PEG80TS4 instead of idT, TF-1, variant of SEQ ID NO: 82(25)
  IC50: > 1000 nM

## GGGUCCUGUCUAAGAGUUUCCGUCUCGUAGACUGUUACCC [SEQ ID NO: 111]
NT-3 (neurotrophin-3) [2]; 2'-F C and U, 2'-H (deoxy) A, scarcely bound to NT-3
  binding result: binds more weakly
NT-4 (neurotrophin-4) [3]; 2'-F C and U, 2'-H (deoxy) A, scarcely bound to NT-4
  binding result: binds more weakly

## GGGUCCUGUGGAAGAGUUUCCGUCUCGUCCACUGUUACCC [SEQ ID NO: 89(4)]
NT-3 (neurotrophin-3) [4]; as 89(2) plus 2'-OMe U9,G10,G11,C29,C30, variant of SEQ ID NO: 89(2)
  IC50: > 10 nM

## GGGUCCUGUUCAAGAGUUUCCGUCUCGUGAACUGUUACCC [SEQ ID NO: 88(1)]
NT-3 (neurotrophin-3) [4]; 2'-OMe C38-40, other C/U 2'-F, G 2'-OH, dA, 5',3' idT, variant of SEQ ID NO: 88
  IC50: > 10 nM

## GGGUCCUGUUCAAGAGUUUCCGUCUCGUGAACUGUUACCC [SEQ ID NO: 88(4)]
NT-3 (neurotrophin-3) [4]; as 88(3) plus 2'-OMe U9,U10,C11,G29, variant of SEQ ID NO: 88(3)
  IC50: > 10 nM

## GGGUCCUGUUCAAGAGUUUCCGUCUCGUGAACUGUUACCC [SEQ ID NO: 116]
NT-4 (neurotrophin-4) [3]; 2'-F C/U, dA, scarcely bound
  binding result: no binding

For some of these results: A negative result means that nothing was seen under these conditions. For some of these results: A weaker result is weaker than the reference pair of the same experiment. For some of these results: Where a protein sequence is shown, tags need not be part of it.
